{
  "source": "PubChem BioAssay AID540276",
  "about": "(National Center for Advancing Translational Sciences (NCATS), 2011)",
  "note": "About 5,400 (1.8%) of roughly 300,000 compounds were called active. Inconclusive means that the source gave no clear call. Such entries were picked first, then a sample of the others. The call rests on the fitted dose curve; tested in HEK293 cells. Potencies beside an inconclusive call are fits to weak or partial responses and may not hold up.",
  "data": [
    {"experiment": "qHTS for inhibitors of binding or entry into cells for Marburg Virus; further: potency means the concentration at half of the fitted maximal effect; on activity change, negative = inhibition: on the % scale 0 is the no-effect control and ±100 the full control effect", "conditions": "Marburg virus pseudotyped entry inhibition, cell reporter; activity change, negative = inhibition: at 37.8 µM (top of the series) unless noted", "values": [
      {"compound": "CCS(=O)(=O)Nc1ccc(C2=NN(C(=O)c3ccco3)C(c3ccc(Cl)o3)C2)cc1", "note": "(stereo unspecified)", "Potency": "inconclusive: 17.8 µM [inhibitor, single point]"},
      {"compound": "COc1ccc(Cl)c2sc(N(CCN(C)C)C(=O)C3=COCCO3)nc12", "Potency": "inconclusive: 2.51 µM [activator, partial curve, poor fit]"},
      {"compound": "CC(=O)Nc1ccc(NC(=O)C(C)OC(=O)CCCOc2ccc(Cl)cc2C)cc1", "note": "(stereo unspecified)", "activity change, negative = inhibition": "inactive: 18.7% [at 46.1 µM]"},
      {"compound": "Cc1ccc(C(=O)c2sc(Nc3ccccc3)c(C#N)c2N)cc1", "Potency": "inconclusive: 22.4 µM [inhibitor, single point]"},
      {"compound": "O=C(CC1NCCNC1=O)Nc1cccc(F)c1", "note": "(stereo unspecified)", "Potency": "inconclusive: 0.562 µM [inhibitor, full curve, poor fit]"},
      {"compound": "Cc1ccc(S(=O)(=O)Nc2cc(C)c(O)c(S(=O)(=O)c3ccc(C)cc3)c2)cc1", "activity change, negative = inhibition": "inactive: -0.0706%"},
      {"compound": "Cc1ccc(Nc2c([N+](=O)[O-])c(=O)oc3ccccc23)cc1C", "Potency": "inconclusive: 15.8 µM [inhibitor, partial curve, poor fit]"},
      {"compound": "C=CCn1c(SCc2c(C)noc2C)nnc1C1COc2ccccc2O1", "note": "(stereo unspecified)", "Potency": "inconclusive: 4.11 µM [activator, single point]"},
      {"compound": "Cc1ccc(C(C[N+](=O)[O-])n2nc(C)cc2C)cc1", "note": "(stereo unspecified)", "Potency": "inconclusive: 3.16 µM [activator, full curve]"},
      {"compound": "CCCOc1ccc(/C=C/C(=O)NC2CCCCC2)cc1OC", "activity change, negative = inhibition": "inactive: 16.7%"},
      {"compound": "O=C(COC(=O)/C=C/c1ccco1)Nc1ncc(C(F)(F)F)cc1Cl", "Potency": "inconclusive: 6.31 µM [activator, single point]"},
      {"compound": "O=S(=O)(c1ccccc1)N1CCC(=NO)CC1", "activity change, negative = inhibition": "inconclusive: 1.66% [activator] [at 46.1 µM]"},
      {"compound": "CCn1c(/C=N/c2nc3ccccc3n2C)nc2ccccc21", "activity change, negative = inhibition": "inactive: 16.1%"},
      {"compound": "COc1cc2ccccc2cc1C(=O)Nc1cc(C)ccn1", "Potency": "inconclusive: 5.62 µM [activator, single point]"},
      {"compound": "CC1(c2ccccc2)O[C@@H]2C[C@H]3[C@@H]4CCC5=CC(=O)C=C[C@]5(C)[C@@]4(F)[C@@H](O)C[C@]3(C)[C@]2(C(=O)CO)O1", "note": "(stereo partly specified)", "Potency": "active: 10 µM"},
      {"compound": "O=C(COC(=O)CSc1ccc(Cl)cc1)Nc1ccc2[nH]c(=O)[nH]c2c1", "activity change, negative = inhibition": "inactive: 0.679% [at 46.1 µM]"},
      {"compound": "CCOc1ccccc1C(=O)Nc1ccc(S(=O)(=O)N2CCOCC2)cc1", "Potency": "inconclusive: 10 µM [inhibitor, partial curve, poor fit]"},
      {"compound": "CC1CN(CCOc2ccc([N+](=O)[O-])cc2)CC(C)O1", "note": "(stereo unspecified)", "Potency": "inconclusive: 2 µM [inhibitor, single point]"},
      {"compound": "O=C(COc1ccccc1-c1ccccc1)NCc1cccc(Cl)c1", "Potency": "inconclusive: 35.5 µM [inhibitor, single point]"},
      {"compound": "COc1ccc(CN2CCN(Cc3cc4ccccc4o3)CC2CCO)cc1C", "note": "(stereo unspecified)", "Potency": "inconclusive: 35.5 µM [inhibitor, single point]"},
      {"compound": "COC(=O)CC1SC(=O)NC1=Nc1cccc(C)c1", "note": "(stereo unspecified)", "Potency": "inconclusive: 6.31 µM [activator, single point]"},
      {"compound": "CCCCCCN1C[C@@H](n2cc(COC(=O)c3ccccc3)nn2)[C@H](O)C[C@H]1c1ccc(Cl)cc1", "Potency": "inconclusive: 15.8 µM [inhibitor, partial curve, poor fit]"},
      {"compound": "O=C(CCN1C(=O)c2cccc3cccc(c23)C1=O)N1CCOCC1", "Potency": "inconclusive: 15.8 µM [activator, single point]"},
      {"compound": "CCOc1ccc(Oc2ccc(Cl)cc2NC(=O)CCNC(C)=O)cc1", "activity change, negative = inhibition": "inactive: -9.01% [at 46.1 µM]"},
      {"compound": "Cc1ccc2oc(=O)c(/C=C(\\O)c3cccs3)nc2c1", "activity change, negative = inhibition": "inactive: -0.492% [at 46.1 µM]"},
      {"compound": "CC(C)C(=O)NCCCc1ccccc1", "Potency": "inconclusive: 5.62 µM [inhibitor, single point]"},
      {"compound": "COC(=O)c1sc(Nc2ccccc2)nc1C", "activity change, negative = inhibition": "inactive: 7.44%"},
      {"compound": "CSc1nc(C)cc(SCC(=O)N/N=C/c2ccccc2)n1", "Potency": "inconclusive: 10 µM [inhibitor, partial curve, poor fit]"},
      {"compound": "COc1ccc(C2CC(=O)c3sc(NC(C)=O)nc3C2)cc1", "note": "(stereo unspecified)", "Potency": "inconclusive: 31.6 µM [activator, single point]"},
      {"compound": "COc1ccc(Nc2oc(COc3ccccc3OC)nc2C#N)cc1", "Potency": "inconclusive: 17.8 µM [inhibitor, partial curve, poor fit]"},
      {"compound": "CCCCC(=O)Nc1nc(-c2ccc(S(=O)(=O)N3CCOCC3)cc2)cs1", "activity change, negative = inhibition": "inactive: -25.1%"},
      {"compound": "COCCNC(=O)COc1ccc(C)cc1C", "Potency": "inconclusive: 14.1 µM [activator, partial curve, poor fit]"},
      {"compound": "CCCCOP(=O)(OCCCC)C(O)c1ccc(Br)cc1", "note": "(stereo unspecified)", "Potency": "inconclusive: 0.355 µM [inhibitor, single point]"},
      {"compound": "Cc1ccc(OCCCc2c(C)n[nH]c2C)cc1", "Potency": "inconclusive: 14.1 µM [inhibitor, single point]"},
      {"compound": "CCOC(=O)C(C)(C)Sc1ncnc2nc[nH]c12", "activity change, negative = inhibition": "inactive: 18.2%"},
      {"compound": "C=CCc1c(C)nc2ccc(C(=O)OCC)cc2c1Cl", "Potency": "inconclusive: 17.8 µM [inhibitor, single point]"},
      {"compound": "O=C(NCCCn1ccnc1)c1ccco1", "Potency": "inconclusive: 0.146 µM [activator, full curve, poor fit]"},
      {"compound": "CC1CCCC(C)N1C(=O)CSc1nnc(COc2ccccc2)n1-c1ccccc1", "note": "(stereo unspecified)", "activity change, negative = inhibition": "inactive: 4.97%"},
      {"compound": "Brc1ccc(-c2cn3ccccc3n2)s1", "Potency": "inconclusive: 35.5 µM [inhibitor, single point]"},
      {"compound": "Cc1ccc(C(=O)O)cc1-n1c(=O)n(Cc2ccccc2)c(=O)c2[nH]cnc21", "Potency": "inconclusive: 35.5 µM [activator, single point]"},
      {"compound": "CC1=CC(=O)C=C(C)C1=NOC(=O)/C=C\\c1ccccc1", "activity change, negative = inhibition": "inactive: -6.03%"},
      {"compound": "COc1ccc(C(=O)NNC(=O)Cc2nc3ccccc3n2C)cc1", "Potency": "inconclusive: 1.26 µM [activator, single point]"},
      {"compound": "Cc1ccc(N2C(=O)NC(=O)/C(=C/C=C/c3ccco3)C2=O)cc1", "Potency": "inconclusive: 5.62 µM [inhibitor, partial curve, poor fit]"},
      {"compound": "OC(CNc1ccccc1)Cn1ccc2ccccc21", "note": "(stereo unspecified)", "Potency": "inconclusive: 35.5 µM [inhibitor, partial curve, poor fit]"},
      {"compound": "CN(C(=O)CS(=O)(=O)c1cccc(Cl)c1)c1ccccc1", "activity change, negative = inhibition": "inactive: -2.82% [at 46.1 µM]"},
      {"compound": "O=C(CCNC(=O)c1ccccc1Cl)Nc1cc(C(F)(F)F)ccc1Cl", "activity change, negative = inhibition": "inactive: -9.18%"},
      {"compound": "COc1ccccc1C(=O)O/N=C(\\N)c1ccccc1Cl", "Potency": "inconclusive: 0.259 µM [inhibitor, single point]"},
      {"compound": "C/C(=N\\NC(=O)c1nnn(-c2nonc2N)c1-c1cccs1)c1ccc(O)cc1", "activity change, negative = inhibition": "inactive: 7.64% [at 46.1 µM]"},
      {"compound": "CCCCC(=O)Nc1cnc(NC(=O)c2ccco2)cc1C", "activity change, negative = inhibition": "inactive: -6.44% [at 46.1 µM]"},
      {"compound": "COc1cc2c(cc1NC(=O)C(c1ccccc1)c1ccccc1)CCCC2", "Potency": "inconclusive: 12.6 µM [inhibitor, partial curve]"},
      {"compound": "Cc1ccc2nc(C3CCCN3Cc3nc(CCC(C)C)no3)[nH]c2c1", "note": "(stereo unspecified)", "Potency": "inconclusive: 20 µM [inhibitor, partial curve, poor fit]"},
      {"compound": "Cc1ccc(NC(=O)Nc2cccs2)cc1", "Potency": "inconclusive: 1.78 µM [activator, partial curve]"},
      {"compound": "CCN(CC)c1ccc2cc(C(=O)NNC(=O)c3ccc(S(=O)(=O)N4CCCCC4)cc3)c(=O)oc2c1", "Potency": "inconclusive: 0.251 µM [activator, full curve, poor fit]"},
      {"compound": "CCOc1ccc(N=Nc2ccc(O)c3ncccc23)cc1", "Potency": "inconclusive: 8.91 µM [inhibitor, partial curve, poor fit]"},
      {"compound": "Cn1c2ccccc2c2ncn(CCC3=CCCCC3)c(=O)c21", "Potency": "inconclusive: 0.73 µM [activator, full curve, poor fit]"},
      {"compound": "CCCCCCCCCn1cc(C(C)=O)c(=O)[nH]c1=O", "Potency": "inconclusive: 4.11 µM [inhibitor, full curve, poor fit]"},
      {"compound": "CCOC(=O)c1nc(-c2ccccc2)oc1N(C)C", "activity change, negative = inhibition": "inactive: -1.62%"},
      {"compound": "CCCCn1c(N)c(N(CCOC)C(=O)c2cc3c(s2)CCCCC3)c(=O)[nH]c1=O", "Potency": "inconclusive: 2.82 µM [activator, full curve, poor fit]"},
      {"compound": "O=C(COc1ccc(C(=O)c2ccccc2)cc1)NC1CCCCCC1", "Potency": "inconclusive: 15.8 µM [inhibitor, single point]"},
      {"compound": "COc1ccccc1/C=C/C(=O)N1CCc2cc(OC)c(OC)cc2C1C", "note": "(stereo unspecified)", "Potency": "inconclusive: 7.94 µM [inhibitor, partial curve, poor fit]"},
      {"compound": "c1ccc2c(-c3cncc4ccccc34)cncc2c1", "Potency": "active: 12.6 µM"},
      {"compound": "COC(=O)C1=C(C(=O)OC)[C@@H]2N(C)c3ccccc3[C@@]23C[C@@H](C(=O)OC)N(C(=O)c2cc(C)oc2C)C3=N1", "activity change, negative = inhibition": "inactive: -2.45% [at 14.2 µM]"},
      {"compound": "CCN(CCCNC(=O)CCCCn1c(=O)[nH]c2ccccc2c1=O)c1ccccc1", "Potency": "inconclusive: 0.0041 µM [inhibitor, full curve, poor fit]"},
      {"compound": "O=C(c1cccs1)c1coc2ccc(O)cc12", "Potency": "inconclusive: 29.1 µM [activator, single point]"},
      {"compound": "CCN(CC)CCCNC(=O)C(C)n1nc(C)c2sc3ccccc3c2c1=O", "note": "(stereo unspecified)", "Potency": "inconclusive: 18.3 µM [inhibitor, single point]"},
      {"compound": "O=C(Nc1cccc2ccccc12)c1cccc(F)c1", "activity change, negative = inhibition": "inactive: 8.49% [at 46.1 µM]"},
      {"compound": "Nc1ccn(Cc2ccc(F)cc2)n1", "activity change, negative = inhibition": "inactive: 14.6% [at 46.1 µM]"},
      {"compound": "Cc1cc(C)c(NC(=O)CSc2nc3ccc(N4C(=O)c5ccccc5C4=O)cc3s2)c(C)c1", "Potency": "inconclusive: 35.5 µM [activator, single point]"},
      {"compound": "O=C1CC2C(CC(OC(=O)c3ccc(-c4ccccc4)cc3)C2CO)O1", "note": "(stereo unspecified)", "activity change, negative = inhibition": "inactive: -29.2%"},
      {"compound": "Nc1nc(C(F)(F)F)c(Br)c(=O)n1N", "activity change, negative = inhibition": "inactive: 13.1% [at 46.1 µM]"},
      {"compound": "CCOc1ccc(CC(=O)NNC(=O)NC2CCCCC2)cc1", "Potency": "inconclusive: 1.58 µM [inhibitor, single point]"}
    ]}
  ]
}
